Laboratory results: doi:10.1101/2025.05.13.653872

B1: PA4352 conserved hypothetical protein (protein, UniProt Q9HW49 1-286)
chain: MKRILVATDLSSRSELAVMRAAALAKARNAELTVLNVLDDDQPPVLIAPQRLAIANLLEVNGQALKERLGVESKAIVRVGDPVVVINAVAEEIGADLLVMGAHRHTPLRDLFIGTTLERVVRNAKIPVLRAAGAPEEEYRRVLLALDFSPTSTRAVQMAGQLGFLDAASLTALHAFEPFAKGMMRYSGIKEDRVEHYVDQEELKANVELRDYVAGLGLGREDIQLRVGEGLPINVIMTEVRRQAPQLTVLGTQGLTGFRRALIGSVAEAALGDLPCDVLAVPPKRD
B2: PA3831 leucine aminopeptidase (protein, UniProt O68822 1-495)
chain: MEFLVKSVRPETLKTATLVLAVGEGRKLGASAKAVDDATGGAISAVLKRGDLAGKVGQTLLLQSLPNLKAERVLLVGAGKERELGDRQYRKLASAVLSTLKGLAGADAALALGDLAVKGRDAHAKARLLVETLADGLYVFDRYKSQKAEPLKLKKLTLLADKADSAAVEQGSKEAQAIANGMALTRDLGNLPPNVCHPTFLGEQAKGLAKEFKGLKVEVLDEKKLRELGMGSFLAVAQGSDQPPRLIVLQYNGAKKDQAPHVLVGKGITFDTGGISLKPGLGMDEMKFDMCGAASVFGTFRAVLELQLPINLVGLLACAENMPSGGATRPGDIVTTMSGQTVEILNTDAEGRLVLCDALTYAERFKPQSVIDIATLTGACIVALGSNTSGLMGNNEALVRQLLKAGEFADDRAWQLPLFDEYQEQLDSPFADIANIGGPKAGTITAGCFLSRFAKKYHWAHLDIAGTAWISGGKDKGATGRPVPLLTQYLLERAK
B3: RpiA (PA0330), ribose 5-phosphate isomerase (protein, UniProt Q9I6G1 1-223)
chain: MNQDQLKQAVAQAAVDHILPHLDSKSIVGVGTGSTANFFIDALARHKAEFDGAVASSEATAKRLKEHGIPVYELNTVSELEFYVDGADESNERLELIKGGGAALTREKIVAAVAKTFICIADASKLVPILGQFPLPVEVIPMARSHVARQLVKLGGDPVYREGVLTDNGNIILDVHNLRIDSPVELEEKINAIVGVVTNGLFAARPADLLLLGTADGVKTLKA
B4: PA5015 pyruvate dehydrogenase (protein, UniProt Q59637 1-882)
chain: MQDLDPVETQEWLDALESVLDREGEDRAHYLMTRMGELASRSGTQLPYAITTPYRNTIPVTHEARMPGDLFMERRIRSLVRWNALAMVMRANKHDPDLGGHISTFASSATLYDIGFNYFFQAPTDEHGGDLVFFQGHASPGVYARAFLEGRISEEQLENFRQEVDGNGLSSYPHPWLMPDFWQFPTVSMGLGPIQAIYQARFMKYLESRGFIPAGKQKVWCFMGDGECDEPESLGAISLAGREKLDNLIFVINCNLQRLDGPVRGNAKIIQELEGVFRGAEWNVNKVIWGRFWDPLFAKDTAGLLQQRMDEVIDGEYQNYKAKDGAYVREHFFGARPELLEMVKDLSDEEIWKLNRGGHDPYKVYAAYHQAVNHKGQPTVILAKTIKGYGTGSGEAKNIAHNVKKVDVDSLRAFRDKFDIPVKDADLEKLPFYKPEEGSAEAKYLAERRAALGGFMPVRRQKSMSVPVPPLETLKAMLDGSGDREISTTMAFVRIISQLVKDKELGPRIVPIVPDEARTFGMEGMFRQLGIYSSVGQLYEPVDKDQVMFYREDKKGQILEEGINEAGAMSSWIAAGTSYSTHNQPMLPFYIFYSMFGFQRIGDLAWAAGDSRAHGFLIGGTAGRTTLNGEGLQHEDGHSHLLASTIPNCRTYDPTYAYELAVIIREGSRQMIEEQQDIFYYITVMNENYVQPAMPKGAEEGIIKGMYLLEEDKKEAAHHVQLLGSGTILREVEEAAKLLRNDFGIGADVWSVPSFNELRRDGLAVERWNRLHPGQKPKQSYVEECLGGRRGPVIASTDYMKLYAEQIRQWVPSKEYKVLGTDGFGRSDSRKKLRNFFEVDRHWVVLAALEALADRGDIEPKVVAEAIAKYGIDPEKRNPLDC
B5: PA4992 hypothetical protein (protein, UniProt Q9HUH3 1-270)
chain: MIRDTLHDLHRPLGDTGLAVSPLGLGTVKFGRDQGVKYPSGFTIPDDREAADLLALARDLGINLIDTAPAYGRSEERLGPLLRGQREHWVIVSKVGEEFVDGQSVFDFSAAHTRRSVERSLKRLETDRIELVLVHSDGNDLDILENSEVYPTLAALKREGLIGAYGLSGKTVEGGLRALREGDCAMVTYNLNERAERPVIEYAAAHAKGILVKKALASGHACLGAGQDPVRASFELVFDQPGVAAAIVGTINPLHLAHNVAMAAQALKKA
B6: PA1681 chorismate synthase (protein, UniProt Q9I344 1-363)
chain: MSGNTYGKLFTVTTAGESHGPALVAIVDGCPPGLELSARDLQRDLDRRKPGTSRHTTQRQEADEVEILSGVFEGKTTGTPIGLLIRNTDQKSKDYSAIKDLFRPAHADYTYHHKYGVRDYRGGGRSSARETAMRVAAGAIAKKYLAGLGIQVRGYMSQLGPIEIPFRSWDSVEQNAFFSPDPDKVPELEAYMDQLRRDQDSVGAKITVVAEGVPPGLGEPIFDRLDAELAHALMSINAVKGVEIGAGFASIAQRGTEHRDELTPQGFLSNNAGGILGGISSGQPIVAHLALKPTSSITTPGRSIDTAGEPVDMITKGRHDPCVGIRATPIAEAMMAIVLLDQLLRQRGQNADVRVDTPVLPQL
B7: PA3729 conserved hypothetical protein (protein, UniProt Q9HXR3 1-688)
chain: MDMTSLMPLLLGVGLVVLLVVGLLALFKAFYIKVPQGTALIVNDMSSTPKVHFTGALVYPVIHLKEFMRISLITLEVDRRGKDGLICRDNMRADITVAFYLRVNETQDDVLKVAKAIGVDRASDRSAVNELFNAKFSEALKTVGKQFDFVQLFENRQDFRDRIIEVIGNDLNGYVLEDVAIDYLEQTAKNSLDPSNILDAEGIRKITELTATQNVITNELERNEELAIKKKNVETREAALALERQQADAEARQKREIETIRAREEAETARVKEEERLKAEQARIQAQQEIDVRTENHQREVEVAQQNRQRAVVIEVEKVTRAKDLEIVAREREVELQKIEKEKALEEQRKNIANVIRERVAVEKTVAQEEERIKEVREVSEAERVKQVILLQAQAEAEQELVRQVKQAEADEARSKHKAVEINTMAQAELEAASKQAEAKKRLAEGIEAERAAPGLADARVLEVTAAAKEKDGLAAARVRAEQLIAEARGDEERGLADARVLEAQAAAKEKDGLAEAKVLAEKLGAQARGEEQLGAAKAKATKDQGSAEAEVLLQRLNAEAEGLGKKFGALDALSDSARQHEEFRMQLEKSFEEAMAAIAANKDIAKDQAEVLATALGKANIEIVGGEGDFFNSFAKSLSVGKAIEGVVGKSPVVQDVLARLLNGRGAAAAVMPERKSGHENEPAAEV
B8: PA3654 uridylate kinase (protein, UniProt O82852 1-245)
chain: MAQQLSARQPRYKRILLKLSGEALMGSEEFGIDPKVLDRMALEIGQLVGIGVQVGLVIGGGNLFRGAALSAAGMDRVTGDHMGMLATVMNGLAMRDALERSNIPALVMSAISMVGVTDHYDRRKAMRHLGGGEVVIFSAGTGNPFFTTDSAACLRAIEIDADVVLKATKVDGVYTADPFKDPNAEKFERLTYDEVLDRKLGVMDLTAICLCRDQNMPLRVFNMNKPGALLNIVVGGAEGTLIEEG
B9: HisI (PA5066), phosphoribosyl-AMP cyclohydrolase (protein, UniProt Q9HUB7 1-134)
chain: MKDWLDEIHWNADGLVPAIAQDHETGRVLMMAWMNREALALTASENRAIYWSRSRGKLWRKGEESGHVQKLHELRLDCDADVVILMVEQVGGIACHTGRESCFYRVFENGAWKTVDPVLKDPDAIYEHAGHHHE
B10: PurF (PA3108), amidophosphoribosyltransferase (protein, UniProt Q51342 1-501)
chain: MCGIVGIVGKSNVNQALYDALTVLQHRGQDAAGIVTCHDDKLYLRKDNGLVRDVFQQRHMQRLIGSVGIGHVRYPTAGSSSSAEAQPFYVNSPYGITLAHNGNLTNVEQLAKEIYESDLRHVNTNSDSEVLLNVFAHELAVRNKLQPTEEDIFAAVSCVHDRCVGGYAVVAMITGHGIVGFRDPNAIRPIVFGQRHTENGVEYMIASESVALDVLGFTLIRDLAPGEAVYITEEGKLYTRQCAKAPKYAPCIFEHVYLARPDSIMDGISVYKARLRMGEKLADKILRERPDHDIDVVIPIPDTSRTAALELANRLGVKFREGFVKNRYIGRTFIMPGQAARKKSVRQKLNAIELEFRGKNVMLVDDSIVRGTTCKQIIQMAREAGAKNVYFCSAAPAVRYPNVYGIDMPSAHELIAHNRSTEDVSKLIGADWLVYQDLPDLIDAVGGGKIKIDHFDCAVFDGEYVTGDVNEAYLNRIEQARNDATKAKSQAVSAIIDLYND

biological target: 3xFlag-PcrP overexpressed in P. aeruginosa ΔpcrP (P. aeruginosa PAO1) (UniProt Q9I040); experiment: affinity purification with mass spectrometry; 3xFlag-PcrP overexpressed in ΔpcrP grown in BMM8 (high Pi, 580 μM) or BMMH8 (low Pi, 50 μM) at 0 or 5 mM Ca2+; lysate (1 mg/ml) on ANTI-FLAG M2 magnetic beads, 2 h at 4°C, washed with 10 mM Tris-HCl pH 7.5; LC-MS/MS; ΔpcrP as negative control

Binder | binding
B1 | binds
B2 | binds
B3 | binds
B4 | binds
B5 | binds
B6 | binds
B7 | binds
B8 | binds
B9 | binds
B10 | binds

No constants are given. Whether binding was seen depends on the method and setting. Binding seen in cells or lysates may run through a third protein. These calls come from enrichment with a bait or labelling near it, and not all partners need be listed. Sequences can lack the tags named with a protein.
